No constants are given. Whether binding was seen depends on the method and setting.
Molecular target: NPM1_(264–277), fragment corresponding to the 2nd helix (residues 264–277) of the C-terminal domain of nucleophosmin 1
Assay: ESI-MS; peptide alone in the presence of DTT (reducing conditions), Figure S3B; both purified

How did the binding turn out when VEAKFINYVKNCFR (acetylated and amidated version) was run?
The binding was “no binding (condition: under reducing conditions (DTT))”.
